Results taken from the supplement of paper PMC10849652.
This is one part of the list.

Protein sequences, listed by entry. Tags and fused reporters are not part of them. Lines headed by an entry give the natural chain unless they say otherwise; changes in a name come on top.
UniProt Q9NZI8, whole entry, looked up: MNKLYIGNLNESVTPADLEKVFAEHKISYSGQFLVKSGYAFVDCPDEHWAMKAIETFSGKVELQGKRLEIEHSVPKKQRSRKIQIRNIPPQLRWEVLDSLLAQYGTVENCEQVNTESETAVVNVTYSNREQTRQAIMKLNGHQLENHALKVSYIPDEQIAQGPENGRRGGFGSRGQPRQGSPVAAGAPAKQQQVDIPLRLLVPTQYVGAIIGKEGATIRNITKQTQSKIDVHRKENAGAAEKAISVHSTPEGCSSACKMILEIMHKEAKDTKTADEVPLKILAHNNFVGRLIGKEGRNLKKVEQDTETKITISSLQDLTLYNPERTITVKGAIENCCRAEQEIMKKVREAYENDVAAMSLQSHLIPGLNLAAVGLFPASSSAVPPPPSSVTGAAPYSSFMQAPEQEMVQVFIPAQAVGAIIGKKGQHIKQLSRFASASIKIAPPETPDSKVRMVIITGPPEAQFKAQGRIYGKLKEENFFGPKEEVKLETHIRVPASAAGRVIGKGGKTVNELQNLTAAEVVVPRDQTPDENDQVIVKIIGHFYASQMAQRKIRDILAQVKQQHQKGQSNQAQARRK
UniProt Q9NV88, whole entry, looked up: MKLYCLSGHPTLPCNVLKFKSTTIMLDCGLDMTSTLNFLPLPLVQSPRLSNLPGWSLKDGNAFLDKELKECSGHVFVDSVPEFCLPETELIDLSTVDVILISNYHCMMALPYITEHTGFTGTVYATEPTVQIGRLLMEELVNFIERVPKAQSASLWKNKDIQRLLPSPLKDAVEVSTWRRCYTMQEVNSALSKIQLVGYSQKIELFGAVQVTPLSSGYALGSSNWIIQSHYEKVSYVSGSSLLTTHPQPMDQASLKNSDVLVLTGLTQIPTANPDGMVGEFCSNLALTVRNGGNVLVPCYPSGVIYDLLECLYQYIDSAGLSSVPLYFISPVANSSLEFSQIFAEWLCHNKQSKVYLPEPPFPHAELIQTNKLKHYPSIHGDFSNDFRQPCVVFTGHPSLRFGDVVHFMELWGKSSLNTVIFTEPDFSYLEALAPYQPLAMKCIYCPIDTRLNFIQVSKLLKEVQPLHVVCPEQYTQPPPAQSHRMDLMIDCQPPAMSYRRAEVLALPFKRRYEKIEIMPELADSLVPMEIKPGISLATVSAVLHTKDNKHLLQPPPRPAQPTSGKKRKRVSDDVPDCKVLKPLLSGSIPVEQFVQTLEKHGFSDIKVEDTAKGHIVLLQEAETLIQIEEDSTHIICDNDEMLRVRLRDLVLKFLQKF
UniProt Q70UQ0: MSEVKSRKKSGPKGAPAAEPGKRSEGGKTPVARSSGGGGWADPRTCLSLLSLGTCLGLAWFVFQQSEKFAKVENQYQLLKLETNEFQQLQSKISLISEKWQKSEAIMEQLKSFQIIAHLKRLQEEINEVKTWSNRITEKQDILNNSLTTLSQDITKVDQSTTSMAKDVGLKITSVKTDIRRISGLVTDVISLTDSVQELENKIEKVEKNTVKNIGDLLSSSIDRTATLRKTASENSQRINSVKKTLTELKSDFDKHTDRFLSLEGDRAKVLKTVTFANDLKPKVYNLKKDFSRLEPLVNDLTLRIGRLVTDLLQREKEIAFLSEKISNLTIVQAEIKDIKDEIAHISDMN
UniProt Q9H1K1: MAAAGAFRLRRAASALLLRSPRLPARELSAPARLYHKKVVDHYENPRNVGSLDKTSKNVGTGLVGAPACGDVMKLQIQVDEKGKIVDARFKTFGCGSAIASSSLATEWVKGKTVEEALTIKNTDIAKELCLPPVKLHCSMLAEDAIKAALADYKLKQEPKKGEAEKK
UniProt P01876, whole entry, looked up: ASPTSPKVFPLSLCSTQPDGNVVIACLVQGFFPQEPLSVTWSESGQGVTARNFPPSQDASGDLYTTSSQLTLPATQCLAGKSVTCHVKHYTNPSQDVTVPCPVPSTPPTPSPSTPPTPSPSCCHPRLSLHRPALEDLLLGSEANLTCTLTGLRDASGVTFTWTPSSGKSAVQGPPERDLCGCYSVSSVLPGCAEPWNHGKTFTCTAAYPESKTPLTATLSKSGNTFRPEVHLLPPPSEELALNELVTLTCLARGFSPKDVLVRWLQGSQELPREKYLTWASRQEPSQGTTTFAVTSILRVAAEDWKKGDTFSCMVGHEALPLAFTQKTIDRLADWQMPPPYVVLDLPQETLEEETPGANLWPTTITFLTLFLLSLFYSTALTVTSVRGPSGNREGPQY
UniProt Q96T52: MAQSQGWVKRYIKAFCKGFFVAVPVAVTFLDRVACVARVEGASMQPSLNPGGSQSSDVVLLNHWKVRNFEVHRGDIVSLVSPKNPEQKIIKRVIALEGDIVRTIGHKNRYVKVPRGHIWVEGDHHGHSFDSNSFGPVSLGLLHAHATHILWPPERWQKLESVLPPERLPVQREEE
UniProt P08648, whole entry, looked up: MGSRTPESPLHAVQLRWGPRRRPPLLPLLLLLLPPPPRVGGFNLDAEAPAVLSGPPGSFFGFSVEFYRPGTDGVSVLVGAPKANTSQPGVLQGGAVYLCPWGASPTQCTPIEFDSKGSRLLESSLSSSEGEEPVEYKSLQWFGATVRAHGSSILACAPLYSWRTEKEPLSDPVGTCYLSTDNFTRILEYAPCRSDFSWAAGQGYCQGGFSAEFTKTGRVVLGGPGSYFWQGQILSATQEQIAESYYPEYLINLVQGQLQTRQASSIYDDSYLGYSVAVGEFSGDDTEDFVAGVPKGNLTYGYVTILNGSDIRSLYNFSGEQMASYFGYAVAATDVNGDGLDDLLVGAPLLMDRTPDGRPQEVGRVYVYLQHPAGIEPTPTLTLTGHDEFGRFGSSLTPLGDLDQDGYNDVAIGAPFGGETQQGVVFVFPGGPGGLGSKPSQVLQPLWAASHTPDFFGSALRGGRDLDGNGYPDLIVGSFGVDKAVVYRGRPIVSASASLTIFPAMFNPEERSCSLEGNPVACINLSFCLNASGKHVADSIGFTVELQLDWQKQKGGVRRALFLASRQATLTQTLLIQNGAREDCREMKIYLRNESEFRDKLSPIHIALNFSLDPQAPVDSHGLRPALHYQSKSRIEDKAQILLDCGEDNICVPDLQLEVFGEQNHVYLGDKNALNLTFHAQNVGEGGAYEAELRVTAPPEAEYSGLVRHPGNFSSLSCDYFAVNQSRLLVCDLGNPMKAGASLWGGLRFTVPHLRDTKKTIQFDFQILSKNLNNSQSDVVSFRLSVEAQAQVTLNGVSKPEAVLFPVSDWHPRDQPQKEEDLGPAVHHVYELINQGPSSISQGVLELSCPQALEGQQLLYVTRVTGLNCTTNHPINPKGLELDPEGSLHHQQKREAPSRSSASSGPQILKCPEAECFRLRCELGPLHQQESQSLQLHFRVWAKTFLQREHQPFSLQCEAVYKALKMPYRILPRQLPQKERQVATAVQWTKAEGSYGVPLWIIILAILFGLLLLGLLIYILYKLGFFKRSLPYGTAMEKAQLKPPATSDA
UniProt Q96SY0, whole entry, looked up: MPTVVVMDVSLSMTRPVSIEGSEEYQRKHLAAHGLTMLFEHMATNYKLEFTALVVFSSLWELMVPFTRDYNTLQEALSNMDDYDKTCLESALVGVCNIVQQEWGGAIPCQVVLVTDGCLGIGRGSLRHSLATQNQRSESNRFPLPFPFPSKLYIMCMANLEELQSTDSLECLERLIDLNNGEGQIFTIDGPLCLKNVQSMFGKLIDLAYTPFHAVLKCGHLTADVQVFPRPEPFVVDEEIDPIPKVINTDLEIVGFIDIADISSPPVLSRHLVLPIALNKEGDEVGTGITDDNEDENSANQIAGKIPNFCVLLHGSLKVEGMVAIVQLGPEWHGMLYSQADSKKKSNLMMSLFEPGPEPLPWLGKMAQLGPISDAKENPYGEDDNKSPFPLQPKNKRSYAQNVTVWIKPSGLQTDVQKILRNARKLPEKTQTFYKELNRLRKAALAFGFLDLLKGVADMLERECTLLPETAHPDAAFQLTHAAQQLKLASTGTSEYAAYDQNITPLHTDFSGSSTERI
UniProt Q9NVM9, whole entry, looked up: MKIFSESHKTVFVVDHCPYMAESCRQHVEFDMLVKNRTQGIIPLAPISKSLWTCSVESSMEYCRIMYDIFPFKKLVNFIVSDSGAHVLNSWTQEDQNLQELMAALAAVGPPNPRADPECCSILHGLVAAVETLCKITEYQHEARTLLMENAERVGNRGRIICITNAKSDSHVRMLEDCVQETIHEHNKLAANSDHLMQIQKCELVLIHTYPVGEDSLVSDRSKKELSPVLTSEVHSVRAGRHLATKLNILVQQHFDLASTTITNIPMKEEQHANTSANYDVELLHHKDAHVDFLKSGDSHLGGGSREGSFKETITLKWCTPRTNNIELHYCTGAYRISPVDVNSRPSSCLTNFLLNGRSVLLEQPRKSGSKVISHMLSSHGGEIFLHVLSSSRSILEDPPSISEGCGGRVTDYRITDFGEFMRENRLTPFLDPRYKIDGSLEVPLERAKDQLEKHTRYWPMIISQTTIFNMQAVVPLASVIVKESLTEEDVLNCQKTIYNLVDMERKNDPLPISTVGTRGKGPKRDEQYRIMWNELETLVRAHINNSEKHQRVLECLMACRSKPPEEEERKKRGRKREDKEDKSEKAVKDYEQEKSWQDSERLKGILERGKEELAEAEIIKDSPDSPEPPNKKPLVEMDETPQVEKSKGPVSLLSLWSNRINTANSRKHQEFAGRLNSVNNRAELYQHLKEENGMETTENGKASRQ
UniProt Q5TA45, whole entry, looked up: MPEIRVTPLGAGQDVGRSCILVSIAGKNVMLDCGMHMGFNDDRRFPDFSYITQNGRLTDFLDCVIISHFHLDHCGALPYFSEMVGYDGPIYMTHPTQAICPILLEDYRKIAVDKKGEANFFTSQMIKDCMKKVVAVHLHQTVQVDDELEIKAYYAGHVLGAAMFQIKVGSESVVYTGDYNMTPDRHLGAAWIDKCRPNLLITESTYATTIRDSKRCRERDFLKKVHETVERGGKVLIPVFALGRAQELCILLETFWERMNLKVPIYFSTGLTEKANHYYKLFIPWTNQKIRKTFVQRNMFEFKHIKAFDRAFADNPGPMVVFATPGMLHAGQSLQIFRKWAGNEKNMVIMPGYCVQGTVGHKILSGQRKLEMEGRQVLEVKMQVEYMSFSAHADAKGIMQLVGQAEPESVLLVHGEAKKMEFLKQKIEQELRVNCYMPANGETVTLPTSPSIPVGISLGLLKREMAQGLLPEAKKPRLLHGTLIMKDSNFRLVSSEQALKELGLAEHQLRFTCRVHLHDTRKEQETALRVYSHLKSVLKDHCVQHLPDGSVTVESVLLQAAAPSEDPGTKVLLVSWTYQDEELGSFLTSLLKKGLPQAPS
UniProt O00410: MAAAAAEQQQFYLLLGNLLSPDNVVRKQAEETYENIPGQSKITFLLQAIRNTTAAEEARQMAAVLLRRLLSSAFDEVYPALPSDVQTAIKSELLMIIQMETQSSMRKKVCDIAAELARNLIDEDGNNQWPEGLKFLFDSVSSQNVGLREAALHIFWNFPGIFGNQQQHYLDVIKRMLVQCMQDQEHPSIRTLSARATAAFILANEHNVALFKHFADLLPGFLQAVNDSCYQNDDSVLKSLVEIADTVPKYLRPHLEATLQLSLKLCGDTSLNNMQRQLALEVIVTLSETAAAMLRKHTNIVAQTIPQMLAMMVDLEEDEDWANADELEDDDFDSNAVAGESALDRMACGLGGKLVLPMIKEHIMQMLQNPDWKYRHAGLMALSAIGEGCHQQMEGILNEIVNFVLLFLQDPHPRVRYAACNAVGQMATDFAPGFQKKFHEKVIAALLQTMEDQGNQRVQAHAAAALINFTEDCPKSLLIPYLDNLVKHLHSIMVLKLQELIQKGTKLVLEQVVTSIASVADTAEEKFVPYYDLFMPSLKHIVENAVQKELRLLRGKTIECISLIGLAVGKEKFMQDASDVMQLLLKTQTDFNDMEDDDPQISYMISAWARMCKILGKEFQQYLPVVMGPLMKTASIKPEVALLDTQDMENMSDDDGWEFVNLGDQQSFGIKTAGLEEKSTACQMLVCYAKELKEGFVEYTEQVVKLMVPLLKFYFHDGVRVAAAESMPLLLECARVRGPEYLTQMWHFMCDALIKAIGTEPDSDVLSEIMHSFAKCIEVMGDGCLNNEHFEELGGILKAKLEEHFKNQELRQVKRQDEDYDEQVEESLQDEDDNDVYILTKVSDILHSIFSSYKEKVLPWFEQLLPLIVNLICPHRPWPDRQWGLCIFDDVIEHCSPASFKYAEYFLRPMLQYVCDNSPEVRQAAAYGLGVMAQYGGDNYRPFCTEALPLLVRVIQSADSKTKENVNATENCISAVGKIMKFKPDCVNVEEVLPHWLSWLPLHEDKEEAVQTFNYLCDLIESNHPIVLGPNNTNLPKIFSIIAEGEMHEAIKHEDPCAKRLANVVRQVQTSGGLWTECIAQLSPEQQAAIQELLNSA

How the values were obtained:
Assay in all cases: log2 fold change, soluble protein after heating vs DMSO (PISA); higher = thermal stabilisation; K562 cells, 10 uM, 30 min; active = over 0.2 and 3.5 SD of the protein, either way, in both replicates (recomputed)
[1] = compound: CC[C@@H]1C(=O)N(C)c2cnc(Nc3ccc(C(=O)NC4CCN(C)CC4)cc3OC)nc2N1C1CCCC1
Procedure, shortened: (§1)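 Values are thermal stability changes relative to control samples and are taken from duplicates. They are stated as log2 fold changes. Before quantification by TMTpro 16plex LC-MS/MS with equalised channel sums, K562 cells at 2×10^6 cells/mL were treated with 10 μM compound for 30 min, heated in aliquots for 3 min across 48°C-58°C, pooled, extracted in PBS with 0.5% NP-40 at 4°C, and centrifuged at 21,000xg for 90 min to give the soluble supernatant.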

volasertib = compound: CC[C@@H]1C(=O)N(C)c2cnc(Nc3ccc(C(=O)N[C@H]4CC[C@H](N5CCN(CC6CC6)CC5)CC4)cc3OC)nc2N1C(C)C [volasertib]
Procedure, shortened: as §1

[2] = compound: CC[C@H](C)N1C=C(C2=C(C=C(C=C21)C3=CN=C(C=C3)N4CCNCC4)C(=O)NCC5=C(C=C(NC5=O)C)C)C
Procedure, shortened: as §1

epoxomicin = compound: CC[C@H](C)[C@@H](C(=O)N[C@@H]([C@@H](C)O)C(=O)N[C@@H](CC(C)C)C(=O)[C@]1(CO1)C)NC(=O)[C@H]([C@@H](C)CC)N(C)C(=O)C [epoxomicin]
Procedure, shortened: as §1

[3] = compound: CCn1c(C(=O)N(C2CC2)C2CC2)cc2c3c(ncn3C)c(Nc3cc(C)n(C)n3)nc21
Procedure, shortened: as §1

[4] = compound: CCn1cc(-c2ccnc3[nH]c(-c4cccc(CN(C)C)c4)cc23)c(-c2ccc(NC(=O)N(C)C)cc2)n1
Procedure, shortened: as §1

[5] = compound: CN(C)CC(=O)Nc1ccc2[nH]c(=O)c3ccccc3c2c1
Procedure, shortened: as §1

rosiglitazone = compound: CN(CCOC1=CC=C(C=C1)C[C@H]2C(=O)NC(=O)S2)C3=CC=CC=N3 (racemic) [rosiglitazone]
Procedure, shortened: as §1

[6] = compound: CN1C2=C(C3=C1C(=O)N(N=C3)CC4=CC(=CC=C4)N)SC(=C2)S(=O)C
Procedure, shortened: as §1

[7] = compound: CN1CCC(CNc2ccc3ncc(-c4cccc(OC(F)(F)F)c4)n3n2)CC1
Procedure, shortened: as §1

saracatinib = compound: CN1CCN(CCOc2cc(OC3CCOCC3)c3c(Nc4c(Cl)ccc5c4OCO5)ncnc3c2)CC1 [saracatinib]
Procedure, shortened: as §1

sotrastaurin = compound: CN1CCN(c2nc(C3=C(c4c[nH]c5ccccc45)C(=O)NC3=O)c3ccccc3n2)CC1 [sotrastaurin]
Procedure, shortened: as §1

alvocidib = compound: CN1CC[C@H](c2c(O)cc(O)c3c(=O)cc(-c4ccccc4Cl)oc23)[C@H](O)C1 [alvocidib]
Procedure, shortened: as §1

Tubastatin A = compound: CN1CCc2c(c3ccccc3n2Cc2ccc(C(=O)NO)cc2)C1 [Tubastatin A]
Procedure, shortened: as §1

[8] = compound: CNC(=O)C1=CC=CC=C1NC2=NC(=NC=C2Cl)NC3=C(C=C(C=C3)N4CCOCC4)OC
Procedure, shortened: as §1

defactinib = compound: CNC(=O)c1ccc(Nc2ncc(C(F)(F)F)c(NCc3nccnc3N(C)S(C)(=O)=O)n2)cc1 [defactinib]
Procedure, shortened: as §1

rucaparib = compound: CNCc1ccc(-c2[nH]c3cc(F)cc4c3c2CCNC4=O)cc1 [rucaparib]
Procedure, shortened: as §1

[9] = compound: CNc1nc(-c2ccc3c(N)n[nH]c3c2)cc(N2C[C@@H](C(=O)NC3CCCCC3)CC[C@H]2C)n1
Procedure, shortened: as §1

encorafenib = compound: COC(=O)N[C@@H](C)CNc1nccc(-c2cn(C(C)C)nc2-c2cc(Cl)cc(NS(C)(=O)=O)c2F)n1 [encorafenib]
Procedure, shortened: as §1

[10] = compound: COC(=O)[C@H](CCSC)NC(=O)C1=C(C=C(C=C1)NC[C@H](CS)N)C2=CC=CC=C2
Procedure, shortened: as §1

Measured: log2 fold change

IGF2BP1 (UniProt Q9NZI8)
inactive: [1] 0.078 | volasertib -0.515 | [2] 0.044 | epoxomicin -0.345 | [3] 0.057 | [4] 0.193 | [5] -0.046 | rosiglitazone -0.1 | [6] 0.381 | [7] -0.107 | saracatinib -0.111 | sotrastaurin -0.185 | alvocidib 0.133 | Tubastatin A 0.125 | [8] 0.033 | defactinib 0.093 | rucaparib 0.46 | [9] 0.093 | encorafenib 0.272 | [10] -0.017

INTS9 (UniProt Q9NV88)
inactive: [1] -0.036 | volasertib -0.133 | [2] 0.035 | epoxomicin 0.037 | [3] -0.006 | [4] -0.046 | [5] -0.016 | rosiglitazone -0.005 | [6] -0.016 | [7] 0.024 | saracatinib 0.021 | sotrastaurin -0.041 | alvocidib -0.055 | Tubastatin A 0.021 | [8] -0.024 | defactinib -0.106 | rucaparib -0.054 | [9] -0.03 | encorafenib 0.007 | [10] 0.016

IDH1 (UniProt O75874)
inactive: [1] 0.013 | volasertib 0.072 | [2] -0.037 | epoxomicin 0.037 | [3] 0.012 | [4] -0.03 | [5] -0.015 | rosiglitazone -0.002 | [6] -0.037 | [7] -0.045 | saracatinib 0.031 | sotrastaurin 0.022 | alvocidib 0.014 | Tubastatin A -0.034 | [8] -0.032 | defactinib -0.001 | rucaparib -0.056 | [9] -0.038 | encorafenib -0.003 | [10] 0.017

IKBIP isoform 4 (UniProt Q70UQ0)
inactive: [1] 0.022 | volasertib -0.022 | [2] -0.019 | epoxomicin -0.002 | [3] 0.022 | [4] 0.017 | [5] -0.047 | rosiglitazone 0 | [6] 0.013 | [7] 0.052 | saracatinib -0.045 | sotrastaurin 0.007 | alvocidib 0.001 | Tubastatin A -0.022 | [8] 0.034 | defactinib 0.006 | rucaparib 0.02 | [9] -0.032 | encorafenib 0 | [10] 0.007

ISCU (UniProt Q9H1K1)
inactive: [1] 0.038 | volasertib 0.121 | [2] 0 | epoxomicin -0.053 | [3] 0.011 | [4] 0 | [5] -0.042 | rosiglitazone 0.292 | [6] -0.066 | [7] 0.052 | saracatinib 0.003 | sotrastaurin 0.085 | alvocidib 0.018 | Tubastatin A -0.068 | [8] 0.008 | defactinib 0.012 | rucaparib -0.095 | [9] -0.04 | encorafenib -0.015 | [10] 0.025

IGHA1 (UniProt P01876)
inactive: [1] -0.111 | volasertib -0.459 | [2] 1.56 | epoxomicin 0.254 | [3] -0.275 | [4] 0.112 | [5] 0.014 | rosiglitazone 0.011 | [6] 1.04 | [7] 0.081 | saracatinib -0.504 | sotrastaurin -0.048 | alvocidib -0.299 | Tubastatin A 0.095 | [8] 0.139 | defactinib 0.2 | rucaparib 0.223 | [9] 0.267 | encorafenib -0.424 | [10] 0.368

IMMP2L (UniProt Q96T52)
inactive: [1] -0.07 | volasertib 0.014 | [2] -0.001 | epoxomicin -0.018 | [3] -0.01 | [4] 0.065 | [5] -0.025 | rosiglitazone 0.004 | [6] -0.01 | [7] -0.169 | saracatinib 0.003 | sotrastaurin 0.021 | alvocidib 0.012 | Tubastatin A -0.052 | [8] 0.023 | defactinib -0.1 | rucaparib -0.007 | [9] -0.034 | encorafenib 0.082 | [10] -0.04

ITGA5 (UniProt P08648)
inactive: [1] 0.043 | volasertib -0.039 | [2] -0.013 | epoxomicin -0.019 | [3] 0.012 | [4] -0.045 | [5] -0.009 | rosiglitazone 0 | [6] -0.104 | [7] 0.175 | saracatinib 0.009 | sotrastaurin 0.042 | alvocidib -0.022 | Tubastatin A -0.005 | [8] -0.056 | defactinib -0.044 | rucaparib 0.031 | [9] 0.03 | encorafenib -0.014 | [10] 0.01

INTS14 (UniProt Q96SY0)
inactive: [1] -0.044 | volasertib -0.117 | [2] 0.048 | epoxomicin 0.031 | [3] -0.02 | [4] -0.029 | [5] 0.039 | rosiglitazone 0.023 | [6] -0.049 | [7] -0.061 | saracatinib -0.028 | sotrastaurin -0.01 | alvocidib -0.033 | Tubastatin A 0.006 | [8] -0.049 | defactinib -0.097 | rucaparib -0.009 | [9] 0.017 | encorafenib 0.031 | [10] -0.016

INTS13 (UniProt Q9NVM9)
inactive: [1] -0.05 | volasertib -0.12 | [2] 0.115 | epoxomicin 0.068 | [3] -0.05 | [4] 0.032 | [5] 0.03 | rosiglitazone 0.051 | [6] -0.045 | [7] -0.078 | saracatinib -0.049 | sotrastaurin -0.065 | alvocidib -0.14 | Tubastatin A 0.038 | [8] -0.051 | defactinib -0.126 | rucaparib -0.011 | [9] 0.081 | encorafenib 0.003 | [10] -0.048

IKBIP (UniProt Q70UQ0)
inactive: [1] 0.018 | volasertib 0.014 | [2] -0.007 | epoxomicin -0.039 | [3] 0.046 | [4] -0.008 | [5] -0.031 | rosiglitazone 0.022 | [6] 0.001 | [7] 0.14 | saracatinib -0.018 | sotrastaurin 0.028 | alvocidib -0.016 | Tubastatin A -0.016 | [8] -0.007 | defactinib 0.038 | rucaparib 0.016 | [9] -0.034 | encorafenib -0.022 | [10] 0.03

Random excerpt: 2 entries already listed
ITGA5 (UniProt P08648)
inactive: [1] 0.043 | volasertib -0.039 | [2] -0.013 | epoxomicin -0.019 | [3] 0.012 | [4] -0.045 | [5] -0.009 | rosiglitazone 0 | [6] -0.104 | [7] 0.175 | saracatinib 0.009 | sotrastaurin 0.042 | alvocidib -0.022 | Tubastatin A -0.005 | [8] -0.056 | defactinib -0.044 | rucaparib 0.031 | [9] 0.03 | encorafenib -0.014 | [10] 0.01

INTS13 (UniProt Q9NVM9)
inactive: [1] -0.05 | volasertib -0.12 | [2] 0.115 | epoxomicin 0.068 | [3] -0.05 | [4] 0.032 | [5] 0.03 | rosiglitazone 0.051 | [6] -0.045 | [7] -0.078 | saracatinib -0.049 | sotrastaurin -0.065 | alvocidib -0.14 | Tubastatin A 0.038 | [8] -0.051 | defactinib -0.126 | rucaparib -0.011 | [9] 0.081 | encorafenib 0.003 | [10] -0.048

Additional results:

IMPDH2 (UniProt P12268)
inactive: [1] 0.036 | volasertib 0.237 | [2] -0.01 | epoxomicin -0.03 | [3] 0.014 | [4] 0.089 | [5] -0.034 | rosiglitazone -0.05 | [6] 0.08 | [7] 0.006 | saracatinib -0.071 | sotrastaurin -0.007 | alvocidib 0.048 | Tubastatin A 0.065 | [8] -0.036 | defactinib 0.067 | rucaparib 0.024 | [9] 0.049 | encorafenib 0.069 | [10] -0.022

INTS11 (UniProt Q5TA45)
inactive: [1] -0.028 | volasertib -0.128 | [2] 0.05 | epoxomicin 0.051 | [3] -0.01 | [4] -0.015 | [5] 0.03 | rosiglitazone 0.016 | [6] -0.024 | [7] -0.012 | saracatinib 0.046 | sotrastaurin -0.026 | alvocidib -0.03 | Tubastatin A -0.051 | [8] 0.01 | defactinib -0.076 | rucaparib 0.006 | [9] 0.004 | encorafenib -0.01 | [10] -0.029

IPO5 isoform 3 (UniProt O00410)
inactive: [1] -0.117 | volasertib -0.168 | [2] 0.035 | epoxomicin 0.028 | [3] 0.033 | [4] -0.09 | [5] 0.043 | rosiglitazone 0.047 | [6] -0.077 | [7] -0.169 | saracatinib 0.043 | sotrastaurin -0.107 | alvocidib -0.098 | Tubastatin A -0.102 | [8] 0 | defactinib -0.036 | rucaparib -0.114 | [9] -0.015 | encorafenib 0.037 | [10] -0.01

ITFG1 (UniProt Q8TB96)
inactive: [1] 0.004 | volasertib -0.075 | [2] -0.015 | epoxomicin -0.016 | [3] -0.044 | [4] 0.026 | [5] -0.08 | rosiglitazone 0.008 | [6] -0.102 | [7] 0.039 | saracatinib 0.167 | sotrastaurin 0.062 | alvocidib -0.015 | Tubastatin A 0.011 | [8] 0.008 | defactinib -0.067 | rucaparib 0.166 | [9] 0.076 | encorafenib -0.075 | [10] 0.201

ITPA (UniProt Q9BY32)
inactive: [1] -0.013 | volasertib -0.08 | [2] 0.003 | epoxomicin 0.102 | [3] -0.023 | [4] -0.003 | [5] 0.024 | rosiglitazone 0.016 | [6] -0.072 | [7] -0.058 | saracatinib -0.037 | sotrastaurin 0.017 | alvocidib -0.006 | Tubastatin A 0.022 | [8] -0.068 | defactinib -0.002 | rucaparib 0.034 | [9] -0.024 | encorafenib -0.023 | [10] -0.026
